Laboratory results reported in patent US20060169172A1, “Disazo compound and ink composition containing the same” (priority 2003, published 2006).

Assay: Evaluation of hue and vividness of recorded image
Assay type: physicochemical
Conditions: density (D value) about 1.0

SMILES: COc1cc(N=Nc2cccc(S(=O)(=O)[O-])c2)ccc1Nc1nc(Nc2ccc(N=Nc3cccc(S(=O)(=O)[O-])c3)cc2OC)nc(N(CCO)CCO)n1.[Na+].[Na+] [Comparative Example 1]
- Hue L* (HG (Photo glossy film)): 94.4
- Hue a* (HG (Photo glossy film)): −8.1
- Hue b* (HG (Photo glossy film)): 61.4
- Vividness C* (HG (Photo glossy film)): 61.9
- Hue L* (PM (Paper for PM photo)): 94.6
- Hue a* (PM (Paper for PM photo)): −9.8
- Hue b* (PM (Paper for PM photo)): 61.4
- Vividness C* (PM (Paper for PM photo)): 62.2
- Hue L* (PR (Professional photo paper)): 95.2
- Hue a* (PR (Professional photo paper)): −8.4
- Hue b* (PR (Professional photo paper)): 60.3
- Vividness C* (PR (Professional photo paper)): 60.9
- Hue L* (Plain Paper): 89.1
- Hue a* (Plain Paper): −1.4
- Hue b* (Plain Paper): 62.7
- Vividness C* (Plain Paper): 62.7

SMILES: COc1cc(N=Nc2cccc(S(=O)(=O)[O-])c2)ccc1NC(=O)Nc1ccc(N=Nc2cccc(S(=O)(=O)[O-])c2)cc1OC.[Na+].[Na+] [Comparative Example 2]
- Hue L* (HG (Photo glossy film)): 94.0
- Hue a* (HG (Photo glossy film)): −7.7
- Hue b* (HG (Photo glossy film)): 63.6
- Vividness C* (HG (Photo glossy film)): 64.1
- Hue L* (PM (Paper for PM photo)): 95.0
- Hue a* (PM (Paper for PM photo)): −9.8
- Hue b* (PM (Paper for PM photo)): 68.2
- Vividness C* (PM (Paper for PM photo)): 68.9
- Hue L* (PR (Professional photo paper)): 95.4
- Hue a* (PR (Professional photo paper)): −8.4
- Hue b* (PR (Professional photo paper)): 64.4
- Vividness C* (PR (Professional photo paper)): 64.9
- Hue L* (Plain Paper): 88.7
- Hue a* (Plain Paper): −0.4
- Hue b* (Plain Paper): 68.6
- Vividness C* (Plain Paper): 68.6
